From PMC10683620
No constants are given. Whether binding was seen depends on the method and setting. In cells and extracts the contact can be indirect. Some binding calls cover weakened binding; strength is not graded here.

Chains of the proteins cited; added tags and fusions are not shown.
UniProt Q96GD4: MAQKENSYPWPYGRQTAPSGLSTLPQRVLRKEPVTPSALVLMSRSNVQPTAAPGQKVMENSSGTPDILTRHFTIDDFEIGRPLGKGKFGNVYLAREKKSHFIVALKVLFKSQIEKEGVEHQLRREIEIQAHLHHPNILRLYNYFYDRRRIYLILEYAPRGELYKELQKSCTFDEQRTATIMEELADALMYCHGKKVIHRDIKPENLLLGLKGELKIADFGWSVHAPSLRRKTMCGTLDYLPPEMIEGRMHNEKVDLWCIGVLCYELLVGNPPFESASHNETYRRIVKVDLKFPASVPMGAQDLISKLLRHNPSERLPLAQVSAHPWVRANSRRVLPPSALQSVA

Molecular target: T1, Kinesin-like protein KIFC1 (human (endogenous in EC109)) (UniProt Q9BW19)
T1 sequence: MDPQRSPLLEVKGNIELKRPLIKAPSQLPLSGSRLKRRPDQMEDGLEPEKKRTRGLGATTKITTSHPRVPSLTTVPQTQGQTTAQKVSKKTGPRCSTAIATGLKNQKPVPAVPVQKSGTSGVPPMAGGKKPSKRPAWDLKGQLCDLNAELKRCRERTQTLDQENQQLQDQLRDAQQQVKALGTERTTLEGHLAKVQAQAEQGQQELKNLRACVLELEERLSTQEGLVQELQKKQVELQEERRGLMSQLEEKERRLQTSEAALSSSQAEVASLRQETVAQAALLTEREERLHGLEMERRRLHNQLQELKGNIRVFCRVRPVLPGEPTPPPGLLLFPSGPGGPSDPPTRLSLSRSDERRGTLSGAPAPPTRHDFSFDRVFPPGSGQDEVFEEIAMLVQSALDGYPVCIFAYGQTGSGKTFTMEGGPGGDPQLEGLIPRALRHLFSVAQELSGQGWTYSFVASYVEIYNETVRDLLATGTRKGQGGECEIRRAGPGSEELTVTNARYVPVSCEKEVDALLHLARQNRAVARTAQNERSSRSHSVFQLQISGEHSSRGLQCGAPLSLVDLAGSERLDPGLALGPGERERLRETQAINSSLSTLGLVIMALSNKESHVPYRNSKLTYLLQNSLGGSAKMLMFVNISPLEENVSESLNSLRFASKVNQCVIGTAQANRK
Test: co-IP; Immunoprecipitation with anti KIFC1 antibody, Aurora B detected by western blot; metaphase cells compared with other cells

In the case of “Aurora B kinase (from UniProt Q96GD4 1-344) (enzyme)”, the binding is reported as “binds”.
